PubChem BioAssay AID1259254 | NCATS | 2017
Aim: 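Gene knock-downs that lead to re-replication, shown by excess G2 DNA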 (primary screen). Cells: human HCT116 colorectal cancer cells. Reagents: single siRNA against human genes. Timing: 3 days. Detection: 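Imaged Hoechst DNA stain sorts each cell into a cycle phase by DNA amount; per plate, G2 fraction set to 0% for non-targeting and 100% for GMNN siRNA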. Scale: G2 robust z-score and G2 cells, % of GMNN control: higher = more G2 cells, more excess DNA replication; raw share of cells in G2: higher = larger share of cells with G2 DNA content. Hit rule: 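An siRNA counts as active if its G2 robust z-score lies at least 5 MADs above the screen median; here such calls match roughly 38% of GMNN control or more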.
In all, the deposit lists about 59,000 reagents; below is a part drawn at random. In the full data, about 1,550 (2.6%) are marked active. 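G2 share is only a proxy for re-replication; each gene was hit by three separate siRNAs, and active genes were retested.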 Raw values vary from plate to plate and are shown uncorrected. The numbers tell different reagents against one gene apart. No sequences are given here. The record does not give: the amount of reagent.

target gene | reagent | G2 robust z-score | G2 cells, % of GMNN control | raw share of cells in G2 (%) | outcome
LOXL1 | 1 | 0.744 | 8.2 | 8.72 | inactive
LOXL1 | 2 | 1.04 | 10.3 | 9.33 | inactive
LOXL1 | 3 | 0.642 | 7.48 | 5.66 | inactive
ARHGAP32 | 1 | 0.0908 | 3.61 | 4.43 | inactive
ARHGAP32 | 2 | 0.0724 | 3.48 | 6.16 | inactive
ARHGAP32 | 3 | -0.693 | -1.91 | 4.48 | inactive
NUP62CL | 1 | -1.15 | -5.1 | 1.78 | inactive
NUP62CL | 2 | 1.79 | 15.6 | 10.8 | inactive
NUP62CL | 3 | -0.749 | -2.31 | 2.43 | inactive
TBC1D15 | 1 | 0.72 | 8.03 | 8.08 | inactive
TBC1D15 | 2 | -1.17 | -5.27 | 2.25 | inactive
TBC1D15 | 3 | -0.948 | -3.7 | 1.72 | inactive
EEF1DP3 | 1 | -0.611 | -1.33 | 3.57 | inactive
EEF1DP3 | 2 | 0.52 | 6.62 | 5.46 | inactive
EEF1DP3 | 3 | -0.323 | 0.698 | 3.43 | inactive
CD82 | 1 | -0.208 | 1.5 | 4.75 | inactive
CD82 | 2 | -1.16 | -5.17 | 3.72 | inactive
CD82 | 3 | -0.508 | -0.604 | 4.82 | inactive
SLIRP-OT1 | 1 | -0.675 | -1.78 | 2.73 | inactive
SLIRP-OT1 | 2 | -0.801 | -2.67 | 2.67 | inactive
SLIRP-OT1 | 3 | 0.575 | 7.01 | 5.76 | inactive
MAP2K2 | 1 | -0.686 | -1.86 | 4.99 | inactive
MAP2K2 | 2 | -1.76 | -9.41 | 2.24 | inactive
MAP2K2 | 3 | -0.182 | 1.69 | 4.62 | inactive
CYB561D1 | 1 | 0.741 | 8.18 | 6.62 | inactive
CYB561D1 | 2 | 0.719 | 8.03 | 6.15 | inactive
CYB561D1 | 3 | -0.631 | -1.47 | 2.82 | inactive

5 entries from above, set out differently.
target gene	reagent	G2 robust z-score	G2 cells, % of GMNN control	raw share of cells in G2 (%)	outcome
EEF1DP3	3	-0.323	0.698	3.43	inactive
CD82	1	-0.208	1.5	4.75	inactive
CD82	2	-1.16	-5.17	3.72	inactive
CD82	3	-0.508	-0.604	4.82	inactive
SLIRP-OT1	1	-0.675	-1.78	2.73	inactive

The list goes on.
target gene | reagent | G2 robust z-score | G2 cells, % of GMNN control | raw share of cells in G2 (%) | outcome
YKT6 | 1 | -0.736 | -2.21 | 2.79 | inactive
YKT6 | 2 | 2.71 | 22 | 15.8 | inactive
YKT6 | 3 | 0.485 | 6.38 | 6.01 | inactive
UPK3A | 1 | 0.203 | 4.4 | 7.08 | inactive
UPK3A | 2 | 8.12 | 60.1 | 27.7 | active
UPK3A | 3 | 2.98 | 24 | 11.8 | inactive
ADGRG6 | 1 | -1.69 | -8.95 | 2.64 | inactive
ADGRG6 | 2 | -0.0615 | 2.53 | 5.4 | inactive
ADGRG6 | 3 | 4.86 | 37.1 | 14.7 | inactive
DDX3X | 1 | -0.248 | 1.22 | 4.52 | inactive
DDX3X | 2 | -0.0785 | 2.42 | 5.88 | inactive
DDX3X | 3 | -0.779 | -2.52 | 4.06 | inactive
CACYBP | 1 | -0.187 | 1.65 | 4.74 | inactive
CACYBP | 2 | -0.127 | 2.07 | 4.67 | inactive
CACYBP | 3 | 0.712 | 7.98 | 9.78 | inactive
LHCGR | 1 | 0.00615 | 3.01 | 6.66 | inactive
LHCGR | 2 | -0.392 | 0.213 | 3.27 | inactive
LHCGR | 3 | 0.353 | 5.45 | 7.47 | inactive
ATL1 | 1 | -0.948 | -3.7 | 4.27 | inactive
ATL1 | 2 | -0.601 | -1.26 | 3.78 | inactive
ATL1 | 3 | -0.616 | -1.37 | 3.28 | inactive
RBM39 | 1 | 0.766 | 8.35 | 8.36 | inactive
RBM39 | 2 | 1.64 | 14.5 | 10.6 | inactive
RBM39 | 3 | -0.0325 | 2.74 | 4.13 | inactive
MOG | 1 | -0.517 | -0.668 | 4.69 | inactive
MOG | 2 | -0.253 | 1.19 | 4.69 | inactive
MOG | 3 | -0.497 | -0.531 | 3.16 | inactive
NDC1 | 1 | -0.209 | 1.5 | 5.1 | inactive
NDC1 | 2 | -0.046 | 2.64 | 5.23 | inactive
NDC1 | 3 | 0.942 | 9.6 | 6.2 | inactive
FAM3D | 1 | -0.526 | -0.736 | 2.31 | inactive
FAM3D | 2 | -0.553 | -0.926 | 3.83 | inactive
FAM3D | 3 | 2.8 | 22.6 | 10.3 | inactive
RABIF | 1 | 2.01 | 17.1 | 11.2 | inactive
RABIF | 2 | 3.72 | 29.1 | 13.8 | inactive
RABIF | 3 | -0.575 | -1.08 | 4.61 | inactive
TUBBP5 | 1 | -0.317 | 0.739 | 3.92 | inactive
TUBBP5 | 2 | 2.85 | 23.1 | 11.6 | inactive
TUBBP5 | 3 | -0.604 | -1.28 | 2.77 | inactive
PHC3 | 1 | -1.04 | -4.32 | 3.63 | inactive
PHC3 | 2 | -0.518 | -0.678 | 3.95 | inactive
PHC3 | 3 | -0.0427 | 2.67 | 5.77 | inactive
